Assay results published in PubChem BioAssay AID493014 (National Center for Advancing Translational Sciences (NCATS), 2011).
The other results are listed elsewhere or left out. The main result of the screen is listed elsewhere. These columns were measured beside it and carry no call. The list favours compounds with an active or inconclusive main result. Potencies come from curve fits of mixed quality, noted in brackets.

Test: qHTS Assay to Find Inhibitors of Chronic Active B-Cell Receptor Signaling
Conditions: ABC-DLBCL IkBa-CBG/CBR reporter, luminescence ratio (green luciferase fused to IkBa over red control in TMD8 lymphoma cells), 4 h
Method in brief: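 TMD8 ABC-DLBCL cells carrying doxycycline-inducible green luciferase fused to IkappaBalpha plus unfused red luciferase were exposed to compounds (up to 46 uM) for 4 hrs at 37C. Activity came from the overlap-corrected green/red luminescence ratio.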

[1] = measured here: IkBa-CBG green luminescence
[2] = measured here: CBR red luminescence, cell number

Row | SMILES | AC50 [1] | AC50 [2]
1 | Cc1ccc(C2=NN(C(=O)CSc3nc(N)cc(N)n3)C(c3ccco3)C2)cc1 (centres undefined) | 20.6 µM [falling, partial curve, poor fit] | –
2 | CCC(Sc1nc2n[nH]c(C)c2c(=N)n1-c1ccc(C)c(Cl)c1)C(=O)N1CCOCC1 (centres undefined) | – | 0.651 µM [falling, full curve, poor fit]
3 | COc1ccccc1NC(CC(=O)c1ccccc1)C(=O)OCC(=O)c1ccc(C)cc1 (centres undefined) | – | 18.4 µM [falling, single point]
4 | CCCc1c(C)nc2c(Br)cccc2c1Cl | – | 29.1 µM [rising, single point]
5 | COC(=O)[C@@H]1CC[C@H](C)[C@@H](c2ccc(C)cc2)N1C(=O)c1ccc(/C=N/OC[C@@H](O)[C@H]2O[C@@H]3OC(C)(C)O[C@@H]3[C@H]2O)cc1 | – | 18.4 µM [falling, single point]
6 | CCOC(=O)/C(=N\Nc1cc(Cl)ccc1Cl)N1CCN(CC)CC1 | – | 32.6 µM [falling, single point]
7 | COc1ccc(C(=O)/C=C/C(=O)N(CC(=O)NC2CCCCC2)CC2CCCO2)c(O)c1 (centres undefined) | – | 35.5 µM [falling, single point]
8 | COc1ccc(/C=N/NC(=O)CCc2n[nH]c(=O)[nH]c2=O)cc1O | – | 3.26 µM [falling, single point]
9 | CC(C)(C)N(Cc1ccccc1)C(=O)CSc1nc2ccccc2c(=O)[nH]1 | – | 2.06 µM [falling, full curve, poor fit]
10 | COc1ccc(C(=O)NCCNC(C)=O)cc1S(=O)(=O)NCc1ccc(Cl)cc1 | – | 29.1 µM [rising, single point]
11 | Cc1ccccc1Nc1nc(Nc2ccccc2C)nc(SC2=NCCS2)n1 | – | 0.146 µM [rising, full curve, poor fit]
12 | C=CCn1c(SCC(=O)c2ccc(O)c(O)c2)nnc1-c1cccc(C)c1 | – | 2.06 µM [falling, full curve]
13 | CC1CN(C(=O)c2cc(Br)c(Br)s2)CC(C)O1 (centres undefined) | – | 5.8 µM [rising, full curve, poor fit]
14 | OC[C@H]1O[C@@H](n2cnc3c(NC4CCCC4)ncnc32)[C@H](O)[C@@H]1O | 0.708 µM [falling, full curve] | 1.46 µM [rising, full curve]
15 | Cc1ccc(N(CC(=O)Nc2ccc(C)cn2)S(=O)(=O)c2c(C)nn(C)c2C)cc1 | – | 4.47 µM [falling, partial curve]
16 | CCc1ccc(-c2nc(CCl)cs2)cc1 | – | 8.2 µM [rising, partial curve]
17 | Cc1cc(C)c(C#N)c(SCc2nnc(-c3ccccc3)o2)n1 | – | 0.0517 µM [falling, full curve]
18 | COc1ccc(NC(=O)C/C(C)=N/NC(=O)c2cccs2)c([N+](=O)[O-])c1 | – | 7.94 µM [falling, partial curve]
19 | CCN(CC)c1ccc(/C=N/NC(=O)c2ccc(Br)o2)cc1 | – | 29.1 µM [falling, single point]
20 | CCOC(=O)N1C(=O)[C@@](c2ccc(Cl)cc2)(C(C)C)N1C(=O)OCC | – | 35.5 µM [falling, single point]

Row | SMILES | AC50 [1] | AC50 [2]
21 | COc1ccc(N(CC(=O)N/N=C/c2cccc(OC)c2OC)S(=O)(=O)c2ccccc2)cc1 | – | 2.24 µM [rising, partial curve, poor fit]
22 | O=C(Nc1nccs1)C(F)(F)C(F)(F)C(F)(F)C(=O)Nc1nccs1 | – | 35.5 µM [falling, single point]
23 | O=C(N/N=C1\CCc2ccccc21)c1ccccc1Cl | – | 29.1 µM [falling, single point]
24 | Cc1ccc(CNC(=O)[C@H](C)N2C(=O)N3CCc4c([nH]c5ccccc45)[C@@]3(C)C2=O)cc1 | – | 17.8 µM [falling, partial curve, poor fit]
25 | CCc1nnc(N/N=C/c2ccc(N3CCC(C)CC3)c([N+](=O)[O-])c2)n1N | 16.4 µM [falling, single point] | –
26 | Cc1sc2ncnc(SCC(=O)NCC(C)C)c2c1C | – | 29.1 µM [rising, single point]
27 | COc1cccc2[nH]c(C(=O)NCC3CCCO3)cc12 (centres undefined) | – | 22.4 µM [falling, single point]
28 | CCOC(=O)c1c(S(=O)(=O)Nc2cccc(-c3ccno3)c2)c(C)n(C)c1C | – | 35.5 µM [rising, single point]
29 | Cc1ccc(CC(=O)Nc2cccc([N+](=O)[O-])c2)cc1 | – | 10 µM [rising, partial curve, poor fit]
30 | O=C(Nc1ccc(F)cc1)Nc1ccccc1F | – | 10 µM [falling, partial curve]
31 | O=C(O)CC/C(=C\c1cc2c(cc1Br)OCO2)c1nc2ccccc2s1 | – | 3.16 µM [rising, full curve, poor fit]
32 | COc1ccc2c(c1)nc(SCC(C)O)n2C (centres undefined) | – | 29.1 µM [rising, partial curve]
33 | O=C(CCN1C(=O)/C(=C/c2ccccc2)SC1=S)NNC(=O)c1ccncc1 | – | 0.0891 µM [rising, full curve, poor fit]
34 | COc1ccc(N=Nc2cc(C)c(O)c(CN3CCCCC3)c2)cc1 | – | 20 µM [rising, partial curve, poor fit]
35 | Cc1cc(NC(=O)CSc2nc3ccccc3c(=O)n2C2CCCC2)no1 | 4.61 µM [falling, full curve] | 11.6 µM [rising, partial curve]
36 | COCCSc1nnc(NC(=O)CCS(=O)(=O)c2ccccc2)s1 | – | 8.91 µM [falling, partial curve]
37 | O=C(Nc1ccc(Cl)c(-c2nc3ccccc3[nH]2)c1)c1ccc2c(c1)OCO2 | – | 10.3 µM [falling, partial curve]
38 | CN(C)c1cc2c(c(N(C)C)c1)C(=O)c1ccccc1C2=O | – | 2.82 µM [falling, partial curve, poor fit]
39 | C/C(=N/NC(=O)c1ccccn1)c1c[nH]c2ccccc12 | – | 22.4 µM [falling, single point]
40 | COC(=O)C(NS(=O)(=O)c1cccc(S(=O)(=O)NC(C(=O)OC)c2ccccc2)c1)c1ccccc1 (centres undefined) | – | 10 µM [falling, partial curve, poor fit]

Row | SMILES | AC50 [1] | AC50 [2]
41 | O=C(Nc1sc2c(c1C(=O)O)CCCCC2)c1ccccc1F | – | 0.0355 µM [falling, full curve]
42 | CC1(C)CC(=O)c2cc(N=C/C(C(=O)c3ccccc3)=C(\O)c3ccccc3)c(=O)oc2C1 | – | 11.2 µM [rising, partial curve]
43 | COC(CNC(=O)C(=O)Nc1ccc2c(c1)N(S(=O)(=O)c1cccs1)CCC2)OC | – | 8.2 µM [rising, partial curve, poor fit]
44 | O=C(COC(=O)c1c(F)cccc1Cl)NCC1CCCCC1 | – | 0.231 µM [rising, full curve]
45 | COc1ccc(-c2noc(N3CCCC(C(=O)Nc4ccccc4F)C3)n2)cc1 (centres undefined) | – | 1.12 µM [rising, full curve, poor fit]
46 | CN(C)C(=O)CSc1n[nH]c(-c2ccco2)n1 | – | 3.55 µM [falling, full curve, poor fit]
47 | COC(=O)Nc1nc2ccc(Sc3ccccc3)cc2[nH]1 | 2.91 µM [falling, full curve] | 2.59 µM [rising, full curve]
48 | Oc1ccccc1N=Nc1ccccc1O | 0.631 µM [falling, partial curve, poor fit] | –
49 | C[C@]12c3[nH]c4cc(-c5ccco5)ccc4c3CCN1C(=O)[C@@H](CC(=O)NCC13CC4CC(CC(C4)C1)C3)C[C@@H]2C(=O)N1CCOCC1 | – | 16.4 µM [falling, partial curve]
50 | O=[N+]([O-])c1cc(NS(=O)(=O)c2ccc(Cl)nc2)ccc1Cl | – | 23.1 µM [falling, partial curve, poor fit]
51 | O=[N+]([O-])c1cccc(S(=O)(=O)c2cccc([N+](=O)[O-])c2)c1 | – | 11.2 µM [falling, partial curve]
52 | COc1ccc(-n2c(-c3ccc(F)cc3)cnc2SCC(=O)NCc2ccco2)cc1 | – | 0.164 µM [rising, full curve, poor fit]
53 | COc1ccccc1NC(=O)c1cnc(Nc2ccccc2OC)c2ccccc12 | 23.1 µM [falling, single point] | 20.6 µM [falling, partial curve]
54 | COc1ccc(C(=O)/C=C/C(=O)N(CC(=O)NC2CCCCC2)Cc2ccccc2)c(O)c1 | – | 3.98 µM [falling, partial curve, poor fit]
55 | COc1cc(/C=N/NC(=S)Nc2cccc(S(=O)(=O)N(C)C)c2)ccc1O | – | 4.11 µM [falling, full curve, poor fit]
56 | O=C1C=C(c2ccc(-c3ccccc3)cc2)C[C@@H](c2ccc(F)cc2)C1 | – | 6.51 µM [rising, partial curve, poor fit]
57 | Cc1cccc(NC(=S)NNC(=O)c2ccc3c(c2)OCO3)c1 | – | 14.6 µM [falling, partial curve, poor fit]
58 | COc1cc2c(cc1OC)-c1cc(Nc3ccc(N(C)C)cc3)nc(=O)n1CC2 | 11.2 µM [falling, partial curve] | –
59 | O=C(CCC(=O)N(CC(=O)NC1CCCC1)c1ccccc1F)Nc1nccs1 | – | 28.2 µM [falling, single point]
60 | COc1ccc(C(=S)N2CCOCC2)cc1OC(=O)c1cc([N+](=O)[O-])c(C)c([N+](=O)[O-])c1 | – | 29.1 µM [rising, single point]

Quoted from the listing.
COc1cc(/C=N/NC(=S)Nc2cccc(S(=O)(=O)N(C)C)c2)ccc1O | AC50 [2]: 4.11 µM [falling, full curve, poor fit]
COc1ccc(-c2noc(N3CCCC(C(=O)Nc4ccccc4F)C3)n2)cc1 (centres undefined) | AC50 [2]: 1.12 µM [rising, full curve, poor fit]
Cc1cccc(NC(=S)NNC(=O)c2ccc3c(c2)OCO3)c1 | AC50 [2]: 14.6 µM [falling, partial curve, poor fit]
